B1: SHOX2a (called SHOX2 in the paper), full-length, yeast two-hybrid fusion [human] / SHOX2a (called SHOX2 in the paper), full-length, yeast two-hybrid fusion [human] (parent)
chain 1: MEELTAFVSKSFDQKVKEKKEAITYREVLESGPLRGAKEPTGCTEAGRDDRSSPAVRAAGGGGGGGGGGGGGGGGGGVGGGGAGGGAGGGRSPVRELDMGAAERSREPGSPRLTEVSPELKDRKEDAKGMEDEGQTKIKQRRSRTNFTLEQLNELERLFDETHYPDAFMREELSQRLGLSEARVQVWFQNRRAKCRKQENQLHKGVLIGAASQFEACRVAPYVNVGALRMPFQQDSHCNVTPLSFQVQAQLQLDSAVAHAHHHLHPHLAAHAPYMMFPAPPFGLPLATLAADSASAASVVAAAAAAKTTSKNSSIADLRLKAKKHAAALGL
chain 2: B1 chain 1

Variants of: B1
Experiment: yeast two-hybrid (β-galactosidase liquid assay)
Details: with SHOX2a (called SHOX2 in the paper), S. cerevisiae Y187, SHOX2 in pGBT9 (BD), mutant in pACT2 (AD), CRPG as substrate, parent: 100, read off a plot

| percent of parent (% SHOX2 dimerization) | Variant |
| --- | --- |
| 110 | chain 1 K139E |
| 34 | chain 1 L155V |
| 25 | chain 1 A193P |
| 100 | chain 1 A269D |
| 34 | chain 1 R319P |
| 110 | chain 1 R218Q |
| 92 | chain 1 R196C |
